Test results: patent US8911805B2, “Calcium preparation and method of production thereof” (Toyo Suisan Kaisha, Ltd., priority 2010, dated 2014)

Assay: Sensory evaluation of bitterness of calcium preparation
Details: calcium 150 mg/100 mL in salt solution

Compound	bitter taste in a solution containing salts
CC(O)C(=O)[O-].CC(O)C(=O)[O-].[Ca+2] (centres unmarked) [calcium lactate]	a strong bitter taste is noted
calcium gluconate	a strong bitter taste is noted
